# Laboratory results from the supplement of paper PMC10849652.
# Amino acid sequences for entries named in this document (tags omitted). A change or cut given only in a name is not applied to a line headed by its entry.
# UniProt Q9Y225: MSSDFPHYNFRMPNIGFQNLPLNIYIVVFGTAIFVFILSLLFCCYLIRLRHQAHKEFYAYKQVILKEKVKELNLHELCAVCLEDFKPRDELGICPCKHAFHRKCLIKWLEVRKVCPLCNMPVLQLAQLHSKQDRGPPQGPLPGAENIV
# UniProt P84095: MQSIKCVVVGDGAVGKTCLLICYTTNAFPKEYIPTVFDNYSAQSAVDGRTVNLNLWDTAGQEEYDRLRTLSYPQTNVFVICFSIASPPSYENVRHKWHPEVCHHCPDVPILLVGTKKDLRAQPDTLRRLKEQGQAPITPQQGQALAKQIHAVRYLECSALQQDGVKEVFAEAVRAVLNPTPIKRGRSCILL
# UniProt Q9P258, whole entry, looked up: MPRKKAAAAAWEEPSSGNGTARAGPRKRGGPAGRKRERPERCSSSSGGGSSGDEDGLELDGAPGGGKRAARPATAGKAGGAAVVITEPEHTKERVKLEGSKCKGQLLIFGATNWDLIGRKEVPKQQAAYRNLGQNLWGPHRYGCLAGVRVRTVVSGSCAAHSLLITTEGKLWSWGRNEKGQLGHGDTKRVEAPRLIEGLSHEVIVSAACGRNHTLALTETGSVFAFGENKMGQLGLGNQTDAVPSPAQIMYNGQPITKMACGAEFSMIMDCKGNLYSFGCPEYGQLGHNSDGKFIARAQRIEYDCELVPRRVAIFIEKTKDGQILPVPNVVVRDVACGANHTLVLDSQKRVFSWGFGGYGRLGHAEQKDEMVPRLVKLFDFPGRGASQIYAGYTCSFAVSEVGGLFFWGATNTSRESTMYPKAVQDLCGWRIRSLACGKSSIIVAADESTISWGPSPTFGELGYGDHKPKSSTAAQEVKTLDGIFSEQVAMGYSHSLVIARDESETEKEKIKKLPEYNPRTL
# UniProt O15541: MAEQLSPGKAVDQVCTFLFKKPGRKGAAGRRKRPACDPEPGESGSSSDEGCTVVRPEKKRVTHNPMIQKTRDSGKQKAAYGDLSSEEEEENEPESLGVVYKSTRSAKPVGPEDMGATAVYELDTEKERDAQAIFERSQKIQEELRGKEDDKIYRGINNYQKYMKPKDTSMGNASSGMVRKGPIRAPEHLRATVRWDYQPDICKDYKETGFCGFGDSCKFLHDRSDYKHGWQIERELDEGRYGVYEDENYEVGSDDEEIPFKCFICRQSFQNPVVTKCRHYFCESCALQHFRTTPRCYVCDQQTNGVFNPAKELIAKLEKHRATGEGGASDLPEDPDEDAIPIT
# UniProt P62745, whole entry, looked up: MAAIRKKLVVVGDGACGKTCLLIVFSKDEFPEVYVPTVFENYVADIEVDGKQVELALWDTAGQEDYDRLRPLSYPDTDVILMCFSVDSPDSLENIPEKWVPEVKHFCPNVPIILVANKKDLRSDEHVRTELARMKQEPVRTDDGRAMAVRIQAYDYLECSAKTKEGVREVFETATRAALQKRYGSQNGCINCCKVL
# UniProt Q8TEB9: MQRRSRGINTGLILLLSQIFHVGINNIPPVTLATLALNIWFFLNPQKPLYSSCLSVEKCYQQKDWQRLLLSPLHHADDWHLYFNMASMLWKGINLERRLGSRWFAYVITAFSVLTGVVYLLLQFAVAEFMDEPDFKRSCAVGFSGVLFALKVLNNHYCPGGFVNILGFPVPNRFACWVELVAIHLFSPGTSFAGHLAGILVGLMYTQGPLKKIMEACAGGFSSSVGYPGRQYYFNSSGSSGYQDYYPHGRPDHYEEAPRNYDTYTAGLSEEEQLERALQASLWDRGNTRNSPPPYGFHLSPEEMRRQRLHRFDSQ
# UniProt Q14257: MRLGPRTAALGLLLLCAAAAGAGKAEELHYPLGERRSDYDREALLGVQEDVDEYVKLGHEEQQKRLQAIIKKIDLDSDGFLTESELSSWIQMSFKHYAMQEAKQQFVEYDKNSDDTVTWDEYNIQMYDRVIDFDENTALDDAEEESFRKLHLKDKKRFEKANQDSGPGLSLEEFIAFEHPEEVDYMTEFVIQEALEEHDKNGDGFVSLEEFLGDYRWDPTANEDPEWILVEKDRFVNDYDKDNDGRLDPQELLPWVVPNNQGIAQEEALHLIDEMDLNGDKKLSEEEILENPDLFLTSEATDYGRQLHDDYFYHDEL
# UniProt Q8ND24: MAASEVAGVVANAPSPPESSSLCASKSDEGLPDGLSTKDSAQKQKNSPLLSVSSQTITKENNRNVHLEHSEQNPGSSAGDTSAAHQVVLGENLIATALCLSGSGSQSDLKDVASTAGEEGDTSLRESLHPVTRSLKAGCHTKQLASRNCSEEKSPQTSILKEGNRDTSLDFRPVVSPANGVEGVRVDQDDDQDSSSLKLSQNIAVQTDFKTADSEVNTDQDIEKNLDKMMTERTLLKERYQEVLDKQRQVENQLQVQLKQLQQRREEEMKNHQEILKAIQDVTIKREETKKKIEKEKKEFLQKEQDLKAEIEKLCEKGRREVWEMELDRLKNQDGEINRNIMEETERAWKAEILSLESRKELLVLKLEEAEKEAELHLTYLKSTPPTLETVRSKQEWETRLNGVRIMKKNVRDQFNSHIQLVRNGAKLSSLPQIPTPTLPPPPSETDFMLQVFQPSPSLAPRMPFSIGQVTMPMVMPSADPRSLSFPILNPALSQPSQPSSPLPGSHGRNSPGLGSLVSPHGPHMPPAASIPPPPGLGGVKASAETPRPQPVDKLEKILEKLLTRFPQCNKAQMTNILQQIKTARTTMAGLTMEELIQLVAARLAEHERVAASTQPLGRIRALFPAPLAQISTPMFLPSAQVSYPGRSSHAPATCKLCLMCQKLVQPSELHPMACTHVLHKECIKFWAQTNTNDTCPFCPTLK
# UniProt P78509: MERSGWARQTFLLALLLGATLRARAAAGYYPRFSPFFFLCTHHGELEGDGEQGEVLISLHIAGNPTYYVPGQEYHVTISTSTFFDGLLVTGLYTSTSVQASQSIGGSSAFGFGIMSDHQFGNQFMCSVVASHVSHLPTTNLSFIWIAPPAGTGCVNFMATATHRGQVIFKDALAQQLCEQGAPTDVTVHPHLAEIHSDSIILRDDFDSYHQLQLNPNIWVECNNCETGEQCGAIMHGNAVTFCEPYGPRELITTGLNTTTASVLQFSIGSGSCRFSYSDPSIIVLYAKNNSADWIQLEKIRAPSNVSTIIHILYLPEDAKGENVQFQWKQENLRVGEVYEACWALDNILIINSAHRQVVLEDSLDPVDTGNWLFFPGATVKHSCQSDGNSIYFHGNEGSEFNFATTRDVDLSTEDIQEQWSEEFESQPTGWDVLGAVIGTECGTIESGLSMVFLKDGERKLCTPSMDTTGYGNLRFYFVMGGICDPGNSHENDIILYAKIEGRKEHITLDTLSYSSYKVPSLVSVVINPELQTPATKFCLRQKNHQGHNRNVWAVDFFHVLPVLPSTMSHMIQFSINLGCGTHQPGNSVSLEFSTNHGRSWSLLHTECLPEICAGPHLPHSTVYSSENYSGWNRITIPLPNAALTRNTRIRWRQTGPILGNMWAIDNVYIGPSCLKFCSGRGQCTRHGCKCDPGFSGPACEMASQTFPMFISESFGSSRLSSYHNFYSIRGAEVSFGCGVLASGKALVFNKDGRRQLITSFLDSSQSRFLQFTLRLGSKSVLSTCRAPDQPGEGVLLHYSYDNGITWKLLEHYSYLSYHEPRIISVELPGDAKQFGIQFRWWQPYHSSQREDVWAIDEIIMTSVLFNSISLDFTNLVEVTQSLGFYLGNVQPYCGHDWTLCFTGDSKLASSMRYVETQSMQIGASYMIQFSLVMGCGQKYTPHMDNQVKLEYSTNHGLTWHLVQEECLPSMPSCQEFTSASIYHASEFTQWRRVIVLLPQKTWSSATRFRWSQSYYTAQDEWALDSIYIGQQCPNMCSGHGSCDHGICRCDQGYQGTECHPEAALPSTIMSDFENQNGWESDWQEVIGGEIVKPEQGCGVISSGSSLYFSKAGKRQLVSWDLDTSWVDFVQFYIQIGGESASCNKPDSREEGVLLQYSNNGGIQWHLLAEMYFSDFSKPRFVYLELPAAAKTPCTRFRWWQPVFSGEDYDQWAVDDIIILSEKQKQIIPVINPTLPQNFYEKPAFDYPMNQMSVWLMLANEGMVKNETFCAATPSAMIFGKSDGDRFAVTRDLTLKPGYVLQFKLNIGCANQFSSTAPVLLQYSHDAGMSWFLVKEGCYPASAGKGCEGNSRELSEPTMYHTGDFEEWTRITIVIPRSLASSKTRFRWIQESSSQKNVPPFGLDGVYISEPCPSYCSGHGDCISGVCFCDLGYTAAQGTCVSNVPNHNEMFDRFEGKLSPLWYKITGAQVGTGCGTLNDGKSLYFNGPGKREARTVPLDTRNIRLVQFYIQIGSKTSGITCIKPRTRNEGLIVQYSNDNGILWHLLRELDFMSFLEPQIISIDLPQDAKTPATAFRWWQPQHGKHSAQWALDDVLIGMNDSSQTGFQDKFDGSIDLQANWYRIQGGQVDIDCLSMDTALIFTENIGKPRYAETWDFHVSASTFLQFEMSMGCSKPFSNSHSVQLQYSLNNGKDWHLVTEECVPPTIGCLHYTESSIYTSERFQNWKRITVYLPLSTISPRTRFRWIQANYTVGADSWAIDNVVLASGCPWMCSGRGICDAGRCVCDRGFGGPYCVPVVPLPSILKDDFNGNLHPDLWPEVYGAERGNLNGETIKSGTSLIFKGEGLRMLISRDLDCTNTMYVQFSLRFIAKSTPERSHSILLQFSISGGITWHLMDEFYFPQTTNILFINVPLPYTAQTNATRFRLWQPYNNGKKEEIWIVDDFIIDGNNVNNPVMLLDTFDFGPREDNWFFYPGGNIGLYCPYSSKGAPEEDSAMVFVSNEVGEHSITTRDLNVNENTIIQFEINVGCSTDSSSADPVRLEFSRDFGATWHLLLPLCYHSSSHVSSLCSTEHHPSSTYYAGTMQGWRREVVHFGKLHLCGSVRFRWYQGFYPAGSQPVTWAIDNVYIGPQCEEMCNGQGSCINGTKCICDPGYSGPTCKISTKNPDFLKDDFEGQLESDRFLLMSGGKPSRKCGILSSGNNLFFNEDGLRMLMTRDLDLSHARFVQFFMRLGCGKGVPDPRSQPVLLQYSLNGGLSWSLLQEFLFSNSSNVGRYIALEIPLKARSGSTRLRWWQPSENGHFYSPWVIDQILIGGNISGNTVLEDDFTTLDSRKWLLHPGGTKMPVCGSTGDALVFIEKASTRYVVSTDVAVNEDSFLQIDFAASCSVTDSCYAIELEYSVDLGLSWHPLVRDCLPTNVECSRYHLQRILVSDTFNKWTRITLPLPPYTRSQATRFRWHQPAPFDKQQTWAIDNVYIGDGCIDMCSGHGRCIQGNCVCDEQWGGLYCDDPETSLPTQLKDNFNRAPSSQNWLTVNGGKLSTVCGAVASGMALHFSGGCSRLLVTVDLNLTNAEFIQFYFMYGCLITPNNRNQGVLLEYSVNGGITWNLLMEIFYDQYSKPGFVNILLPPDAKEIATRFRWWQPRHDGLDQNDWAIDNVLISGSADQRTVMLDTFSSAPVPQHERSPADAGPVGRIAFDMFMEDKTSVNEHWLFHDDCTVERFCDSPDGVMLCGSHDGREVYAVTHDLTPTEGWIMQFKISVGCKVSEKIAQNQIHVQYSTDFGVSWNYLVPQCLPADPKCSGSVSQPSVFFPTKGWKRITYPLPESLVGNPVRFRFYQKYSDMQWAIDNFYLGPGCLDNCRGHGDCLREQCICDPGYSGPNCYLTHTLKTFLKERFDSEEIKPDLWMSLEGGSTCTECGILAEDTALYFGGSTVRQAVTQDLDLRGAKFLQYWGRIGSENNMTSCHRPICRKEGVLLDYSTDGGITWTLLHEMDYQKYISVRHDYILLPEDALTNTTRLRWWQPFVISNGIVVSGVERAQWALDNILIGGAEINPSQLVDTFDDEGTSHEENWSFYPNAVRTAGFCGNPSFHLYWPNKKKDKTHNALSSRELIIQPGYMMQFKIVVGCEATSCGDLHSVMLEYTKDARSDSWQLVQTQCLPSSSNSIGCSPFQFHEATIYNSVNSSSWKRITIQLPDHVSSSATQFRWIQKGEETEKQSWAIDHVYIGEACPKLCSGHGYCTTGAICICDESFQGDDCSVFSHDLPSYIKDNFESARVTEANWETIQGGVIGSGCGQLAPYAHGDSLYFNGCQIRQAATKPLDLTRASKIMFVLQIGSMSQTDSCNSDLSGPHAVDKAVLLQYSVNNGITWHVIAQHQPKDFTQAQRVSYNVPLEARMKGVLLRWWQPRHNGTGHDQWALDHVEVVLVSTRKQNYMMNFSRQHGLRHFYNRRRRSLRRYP
# UniProt A6NED2: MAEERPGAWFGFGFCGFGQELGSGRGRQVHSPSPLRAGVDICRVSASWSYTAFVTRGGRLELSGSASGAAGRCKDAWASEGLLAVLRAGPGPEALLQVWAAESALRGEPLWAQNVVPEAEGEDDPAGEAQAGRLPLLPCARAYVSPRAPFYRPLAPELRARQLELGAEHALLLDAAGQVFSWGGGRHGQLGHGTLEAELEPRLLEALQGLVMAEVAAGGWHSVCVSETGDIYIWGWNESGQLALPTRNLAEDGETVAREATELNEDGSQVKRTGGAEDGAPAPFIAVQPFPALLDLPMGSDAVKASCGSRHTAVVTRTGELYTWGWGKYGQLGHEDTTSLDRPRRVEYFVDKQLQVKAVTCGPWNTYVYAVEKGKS
# The list shows a part of the results.
# Compound: CN1CCC(CNc2ccc3ncc(-c4cccc(OC(F)(F)F)c4)n3n2)CC1
# Assay: log2 fold change, soluble protein after heating vs DMSO (PISA); higher = thermal stabilisation; K562 cells, 10 uM, 30 min; active = over 0.2 and 3.5 SD of the protein, either way, in both replicates (recomputed)
# In short: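 K562 cells at 2×10^6 cells/mL were given 10 μM compound for 30 min. Aliquots then went through 3 min of heating across 48°C-58°C, were pooled, and were extracted in PBS with 0.5% NP-40 at 4°C, and the supernatant after 21,000xg for 90 min was quantified by TMTpro 16plex LC-MS/MS with channel sums equalised. Thermal stability relative to control samples, from duplicates, is given as log2 fold change.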
row,Target,log2 fold change
1,RNF24 isoform 2 (UniProt Q9Y225),inactive: 0.085
2,RFK (UniProt Q969G6),inactive: -0.011
3,RNF181 (UniProt Q9P0P0),inactive: 0.051
4,RHOG (UniProt P84095),inactive: 0.101
5,RCSD1 (UniProt Q6JBY9),inactive: -0.045
6,RMND1 (UniProt Q9NWS8),inactive: -0.034
7,RNF213 isoform 4 (UniProt Q63HN8),inactive: 0.02
8,REPS1 (UniProt Q96D71),inactive: -0.181
9,REEP3 (UniProt Q6NUK4),inactive: -0.109
10,RFX1 (UniProt P22670),inactive: 0.087
11,RBMX (UniProt P38159),inactive: 0.289
12,RIOK1 (UniProt Q9BRS2),inactive: 0.052
13,RHOT2 (UniProt Q8IXI1),inactive: 0.129
14,RILP (UniProt Q96NA2),inactive: 0
15,RHAG (UniProt Q02094),inactive: 0.099
16,RCC2 (UniProt Q9P258),inactive: -0.043
17,RFT1 (UniProt Q96AA3),inactive: 0.094
18,RBPJ (UniProt Q06330),inactive: 0.023
19,REXO2 (UniProt Q9Y3B8),inactive: -0.026

# Given tab-delimited: part of the list above.
row	Target	log2 fold change
16	RCC2 (UniProt Q9P258)	inactive: -0.043
17	RFT1 (UniProt Q96AA3)	inactive: 0.094

# The listing continues:

row,Target,log2 fold change
1,RDX (UniProt P35241),inactive: 0.013
2,RHOC (UniProt P08134),inactive: 0.062
3,RNF113A (UniProt O15541),inactive: -0.015
4,RBM38 (UniProt Q9H0Z9),inactive: 0.062
5,RHOB (UniProt P62745),inactive: 0.108
6,RHBDD1 (UniProt Q8TEB9),inactive: -0.222
7,RNF114 (UniProt Q9Y508),inactive: -0.058
8,RCN2 isoform 2 (UniProt Q14257),inactive: 0.084
9,RNF214 (UniProt Q8ND24),inactive: -0.053
10,RELN (UniProt P78509),inactive: 0.165
11,RCC1L (UniProt Q96I51),inactive: 0.008
12,REEP5 (UniProt Q00765),inactive: 0.071
13,RMDN3 (UniProt Q96TC7),inactive: 0.008
14,RENBP (UniProt P51606),inactive: 0
15,RFC4 (UniProt P35249),inactive: -0.043
16,REEP6 (UniProt Q96HR9),inactive: 0.072
17,RMDN1 (UniProt Q96DB5),inactive: -0.201
18,RCCD1 (UniProt A6NED2),inactive: -0.048
19,REPIN1 isoform 4 (UniProt Q9BWE0),inactive: -0.038
